Experimental data: the supplement of paper PMC5949888
Most values lie at the floor of the assay. Slopes are relative: functional sequences can read slightly below zero.

Test system: Saccharomyces cerevisiae PS128 hsf1 delta, HSF1(1-493) fusion
Assay: growth estimate (transactivation domain function in HSF1 fusion, heat-shock survival) (a.u. (slope of normalised read count over time)); higher = stronger growth at 37°C, i.e. more transactivation activity
Conditions: library: random library

Row | Substance | growth estimate
1 | RGGSDTCAEGCLSTKASWVE | < -0.25
2 | GRQGYIPPCTWTNPVDYGGV | < -0.25
3 | CGGSRDMALHLKEW | < -0.25
4 | SRGSMTKSLSTLGPPNDDSE | < -0.25
5 | QADTCLRAQAQMKIISRCFC | < -0.25
6 | CMLRYFSFSCILQLKYPFIV | < -0.25
7 | VRRSIKR | < -0.25
8 | PVGEWGTERTAREMDFDHDA | < -0.25
9 | SSLPLSGRSCWGTEEL | < -0.25
10 | YRRLRGSGITGFDLA | < -0.25
11 | RDRLGIRGVGKKNSLG | < -0.25
12 | GGAYTRNYWECGQPT | < -0.25
13 | RPTEVW | < -0.25
14 | KEIGSQFLDEAQVGFPPGVA | < -0.25
15 | VLRGRARKAAGYMLTAYATL | < -0.25
16 | ISSYCGTQSVYILDVRLVQA | < -0.25
17 | GHLDRGARNYPNVRR | < -0.25
18 | SLVKSRTRHVALGIASNLEC | < -0.25
19 | ILSQLCP | < -0.25
20 | SSLKG | < -0.25
21 | KVDRTLRGGDREHAYLVRVH | < -0.25
22 | VDP | < -0.25
23 | VDTYLWKAIACLTDQ | < -0.25

Row | Substance | growth estimate
24 | GLKCSLESREA | < -0.25
25 | GHDKE | < -0.25
26 | EMILVGREAAKRFMLCVP | -0.0073
27 | PSVCPMKAVKLV | < -0.25
28 | SGI | < -0.25
29 | EVGKQTCASETAPNG | < -0.25
30 | DVP | < -0.25
31 | QESMATGQISDTSASRAPVT | -0.245
32 | VRKVFEARQ | < -0.25
33 | SICVKPMDCGRPSQYYTVHR | < -0.25
34 | TDLCRRRIHLPGDSDAAPCS | < -0.25
35 | GSVTARHMQLTRGNIVS | < -0.25
36 | WSQR | < -0.25
37 | TLDLTDESAASKSTFHWHRP | < -0.25
38 | VCSHSE | < -0.25
39 | LGFACP | < -0.25
40 | MYQRSLMSLCKVCVQGGQPC | < -0.25
41 | IQLPFLVRMLRACRTSPG | < -0.25
42 | KHADLLTRISGGVHPYLGTV | < -0.25
43 | KLPLKIDSAGLEEDLYG | < -0.25
44 | VRWMPPI | < -0.25
45 | AIVTMLSRAVLIARRIWLML | < -0.25
46 | GIRIAIFAD | < -0.25

Row | Substance | growth estimate
47 | ALRRERAQWCMRSTLSFGGC | < -0.25
48 | PWMVE | < -0.25
49 | PGW | < -0.25
50 | EWQELLTSHRIRANTVALVA | < -0.25
51 | ASDVFGA | < -0.25
52 | TSSGGLPWSSR | < -0.25
53 | WGLLFCSQFYVRSRMLLTYG | < -0.25
54 | RSCRR | < -0.25
55 | VLSKCTGRG | < -0.25
56 | SRGTGGGTGRYKARLQRSFA | < -0.25
57 | SLARSESAVA | < -0.25
58 | CVCTIHPLVWLSFPFCLDLK | < -0.25
59 | GTFA | < -0.25
60 | LTHPGRRRTPIFTSKDTFEV | < -0.25
61 | IAGNLLRGRSAACFRFRERF | < -0.25
62 | VAG | < -0.25
63 | RTCSCRFKPLG | < -0.25
64 | WHSGAVAAIVMRAEGSTRRN | < -0.25
65 | CGPMLWPRWPAGAPKGLPAV | < -0.25
66 | GTT | < -0.25
67 | QHQG | < -0.25
68 | GMLQIDEIKLCLRCARGIVL | < -0.25
69 | QQVHQVVNPRSCRKCLEGFR | < -0.25

Row | Substance | growth estimate
70 | SFRTNLDTQYSNCCSRVP | < -0.25
71 | HLWVTAQVRAQAEP | < -0.25
72 | RSPDPSPTSQMRAGH | < -0.25
73 | GDQREPFPWICLSTVRLFAL | < -0.25
74 | RGNI | -0.243
75 | LRQIT | < -0.25
76 | CPYTGLVIHGMQWTYLGG | < -0.25
77 | EVIALACVQGSPCTHILAWQ | < -0.25
78 | PPLSSDESNPGECLS | < -0.25
79 | SVPCRWAY | < -0.25
80 | GPATKGEEGRVLHTFDNSTG | < -0.25
81 | RLEVR | < -0.25
82 | GCYSRRRSMAGDQQVGRRFR | < -0.25
83 | QGD | < -0.25
84 | MGIGTSVDPIAKFLVIYTRG | < -0.25
85 | YAVSGTRNDHCVAAQRPTWG | < -0.25
86 | SAHLVFTV | < -0.25
87 | YDM | < -0.25
88 | RPPSEQWVKIN | < -0.25
89 | LPHLGDEVVVVSSGG | < -0.25
90 | ATVPGPPPLLDLLRPRRVSG | < -0.25
91 | TTVLSTRERRRFTAELSSVN | < -0.25
92 | IQEIRAPRSHATDTSGDQRW | < -0.25

Row | Substance | growth estimate
93 | VCLRRFWQHH | < -0.25
94 | PGS | -0.243
95 | VLDPEI | < -0.25
96 | IEIMS | < -0.25
97 | DVRTRGAC | < -0.25
98 | EGSRGAHSRSIRRSRYALKL | < -0.25
99 | LEFSWHLLANVRRDVSYMDA | < -0.25
100 | GLKVKPVI | < -0.25
101 | QRLWCYKLYYPSVDTGGHVT | < -0.25
102 | LLSSGSSCLLLWPTRPRAC | < -0.25
103 | GQYLLVV | < -0.25
104 | RVGPSLQALSRVVRAFYG | < -0.25
105 | TEVGSRPLVGFTAHRSVSTV | < -0.25
106 | VSGPHVWRVGSRPMQNSKSA | < -0.25
107 | HGP | < -0.25
108 | RALRARHFRWSEALCSCGVS | < -0.25
109 | SFP | < -0.25
110 | RGCVTYRPRKWQS | < -0.25
111 | ECDQRLEKKGHSKSLRAFLF | < -0.25
112 | RNRSNAGDRQALSRELLCHG | < -0.25
113 | PWSKHRQDRCYKRARLLLYT | -0.243
114 | VGDPASGPINKNGRSKLQSS | < -0.25
115 | RATCQCSALLNGDGR | < -0.25

Row | Substance | growth estimate
116 | RSLLMHVMCGRGLG | < -0.25
117 | LVGVPWIAWIPSVVATTLVG | < -0.25
118 | SIASATLKYGLNP | < -0.25
119 | IWSVCVPGTISESDSRS | < -0.25
120 | WNVPIAQKNDAIG | < -0.25
121 | PNGCWYKNRFGFCLAPVNST | < -0.25
122 | AITNPCPIS | < -0.25
123 | KADVGSTKAKIVSHMQMRLH | < -0.25
124 | QQSVRREAPLC | < -0.25
125 | TGLILWLIYILWCASYLRRL | < -0.25
126 | MYGPPTSHLVR | < -0.25
127 | VWGGVSPLGNLQPCWWLIHP | < -0.25
128 | RAVTVT | < -0.25
129 | NPKGTPLNGG | < -0.25
130 | GLATTIIDGIIGNGQWMIPT | < -0.25
131 | VGSRSASVWTSRWSER | < -0.25
132 | AEFVASRHLNRRARAGA | < -0.25
133 | GNGVGGSPFIGNLAVILMSS | < -0.25
134 | SAM | < -0.25
135 | TPDGQMLCLTRARI | < -0.25
136 | CGRNSRQPSTWSDRVAGDSP | < -0.25
137 | DCCDQ | < -0.25
138 | NIEGTTWAVVCSAVRSRSEK | < -0.25

Given tab-delimited: entries from further up.
Row	Substance	growth estimate
4	SRGSMTKSLSTLGPPNDDSE	< -0.25
14	KEIGSQFLDEAQVGFPPGVA	< -0.25
25	GHDKE	< -0.25
26	EMILVGREAAKRFMLCVP	-0.0073
28	SGI	< -0.25
29	EVGKQTCASETAPNG	< -0.25
33	SICVKPMDCGRPSQYYTVHR	< -0.25
34	TDLCRRRIHLPGDSDAAPCS	< -0.25
35	GSVTARHMQLTRGNIVS	< -0.25
43	KLPLKIDSAGLEEDLYG	< -0.25
45	AIVTMLSRAVLIARRIWLML	< -0.25
46	GIRIAIFAD	< -0.25
49	PGW	< -0.25
54	RSCRR	< -0.25
60	LTHPGRRRTPIFTSKDTFEV	< -0.25
66	GTT	< -0.25
73	GDQREPFPWICLSTVRLFAL	< -0.25
81	RLEVR	< -0.25
86	SAHLVFTV	< -0.25
90	ATVPGPPPLLDLLRPRRVSG	< -0.25
96	IEIMS	< -0.25
106	VSGPHVWRVGSRPMQNSKSA	< -0.25
109	SFP	< -0.25
110	RGCVTYRPRKWQS	< -0.25
118	SIASATLKYGLNP	< -0.25
120	WNVPIAQKNDAIG	< -0.25
126	MYGPPTSHLVR	< -0.25
128	RAVTVT	< -0.25
132	AEFVASRHLNRRARAGA	< -0.25
133	GNGVGGSPFIGNLAVILMSS	< -0.25
135	TPDGQMLCLTRARI	< -0.25
137	DCCDQ	< -0.25

Copied from the list.
In growth estimate, QQSVRREAPLC shows < -0.25
In growth estimate, WNVPIAQKNDAIG shows < -0.25
In growth estimate, GNGVGGSPFIGNLAVILMSS shows < -0.25
In growth estimate, GLATTIIDGIIGNGQWMIPT shows < -0.25

Next records follow.

Row | Substance | growth estimate
139 | QYQLRGDGPVQQCVR | < -0.25
140 | HGGF | < -0.25
141 | RFSHSHMLL | -0.243
142 | TFAKSGVNRAN | < -0.25
143 | FSQDIVGKS | < -0.25
144 | MSERRVMTQIKSL | < -0.25
145 | QRVGSQHRSWIEREYRTSRR | -0.248
146 | WGSLS | < -0.25
147 | TCHLGHSNNFFQAS | < -0.25
148 | RWARTNSCRARQSKPFYVDS | < -0.25
149 | IWYLIMTCTVVLRLVKCYRV | < -0.25
150 | CHRVI | < -0.25
151 | EPLPGGRI | < -0.25
152 | GLCDQCRRQFEALGWDAL | -0.245
153 | HSGIRESDPR | < -0.25
154 | SLCGTVLN | < -0.25
155 | LVSVSFVF | < -0.25
156 | RACSGVIHVIESPLLMRRAL | < -0.25
157 | RFVLYGLLIWLGESCGAFPA | < -0.25
158 | CITRRKESVVRAFLYVITVA | < -0.25
159 | CTGKVEPCLREASRLPTVCA | < -0.25
160 | RLRVCLSVFADSRNVFVRAR | < -0.25
161 | GASRVP | < -0.25
